Results taken from US20260231914A1, “BRAIN-DERIVED NEUROTROPHIC FACTOR-NANO LUCIFERASE TRANSGENIC RODENTS AND METHODS OF USE THEREOF” (University of Florida Research Foundation, Incorporated, priority 2023, published 2026).
At least one compound was matched to its structure with a doubt left.

Tested on: BDNF-NLuc
Assay: LOPAC library screening, NLuc activity in cultured Bdnf^NLuc/+ neurons (HTS)
Format: cell-based, mouse
Conditions: 24 hours; for hit status in repeat screening with 4 different plates of cultured neurons (FIG. 5D): 10 μM, different batch of neurons; for hit: NLuc activity in neurons increased to more than 3× standard deviations over the mean: LOPAC compounds 10 μM, DIV7 neurons, FIGS. 5A-5D
Description: We tested the scalability of the Bdnf^NLuc/+ phenotypic assay by screening the 1280-compound Library of Pharmacologically Active Compounds (LOPAC). We dissected out cortices and hippocampi of 8 Bdnf^NLuc/+ embryos at E18.5 from 2 timed pregnant mice, prepared a suspension of dissociated neurons (10,000 cells/80 μl), transferred 40 ml of the suspension into each of eight 50-ml Falcon centrifuge tubes, used the liquid handling device to plate cells from each aliquot of 40-ml cell suspension onto a 384-well plate (80 μl/well), and cultured neurons.
Using 2 sets of 4 plates each of DIV7 neuronal cultures, we removed 20 μl of medium from each well and then added each LOPAC compound in 20 μl of fresh medium to a well to reach a final concentration of 10 μM. LOPAC compounds (320) were added to wells in the middle 20 columns of each plate, while the first 2 and last 2 columns were used for vehicle controls and positive controls. After 24 hours of incubation, we inverted plates to dump culture medium and then measured NLuc activity in neurons. The NLuc activity in each well is normalized to the average of NLuc activities in 1280 compound-containing wells. […] Compounds that increased the NLuc activity to more than 3× standard deviations (3×SDs) over the mean were considered a hit, and in this case, there are 7 hits in the first set of plates (FIG. 5A) and 10 hits in the second set of plates (FIG. 5B), 7 of which are shared. When the average of duplicate assays for each compound is plotted, we identify the same hits from the second set of plates, with the exception of hit 8 (FIG. 5C). To test the repeatability of the assay in different batches of cultured neurons, we repeated the screening with 4 different plates of cultured neurons.
Compound treatment and LOPAC library screening. Compound treatment or library screening in primary cultures of Bdnf^NLuc/+ mouse neurons on day 7 in vitro (DIV7) was performed by replacing one-quarter of the culture medium with equal volume of compound-containing medium to yield the desired final concentration for each compound. For the library of pharmacologically active compounds (LOPAC, Millipore), compounds in the original source plates were first dosed using a pintool into 384-well plates containing feeding medium to create a secondary source plate with compounds at 40 μM using the Beckman Coulter's Biomek NXP automated liquid handler (Beckman). 1.6% DMSO and 40 μM (+)-Bay K8644 (Sigma) were added to the first two and the last two columns of the secondary source plate as vehicle and positive control, respectively. Compounds in the secondary source plates were then added to culture neurons in the 384-well plates using a Versette liquid handler. Neurons were treated with compounds for 24 hours in a humidified incubator set to 37° C. and 5% CO2. Luciferase activity was detected the next day using Nano-Glo Luciferase Assay System (Promega) according to the manufacturer's instruction. Luminescence intensity was measured using a microplate reader (FLUOstar Omega, BMG LABTECH) at 460 nm.

| SMILES | hit status in repeat screening with 4 different plates of cultured neurons (FIG. 5D) | hit: NLuc activity in neurons increased to more than 3× standard deviations over the mean |
| --- | --- | --- |
| CCCCC1C(=O)N(c2ccccc2)N(c2ccccc2)C1=O [phenylbutazone] | rediscovered | hits and above dotted line |
| COCCOC(=O)C1=C(C)NC(C)=C(C(=O)OC(C)C)C1c1cccc([N+](=O)[O-])c1 (stereo not shown) [nimodipine] | rediscovered | hits and above dotted line |
| CCOC(=O)C1=C(C)NC(C)=C(C(=O)OC)C1c1cccc(Cl)c1Cl (stereo not shown) [felodipine] | – | hits and above dotted line |
| CCOC(=O)C1=C(C)NC(C)=C(C(=O)OC)C1c1cccc([N+](=O)[O-])c1 (stereo not shown) [nitrendipine] | rediscovered | hits and above dotted line |
